Assay results as given in the supplement of paper PMC11237882.
This is one part of the list. Values are worked out from sequencing counts and are noisy.

T1: Homer1 EVH1 domain
T1 chain: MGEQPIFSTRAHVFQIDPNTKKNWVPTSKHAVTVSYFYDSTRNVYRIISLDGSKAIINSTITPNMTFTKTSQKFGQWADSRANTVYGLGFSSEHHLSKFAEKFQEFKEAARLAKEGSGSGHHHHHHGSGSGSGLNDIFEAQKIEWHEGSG


Target: T1, Homer1 EVH1 domain
Assay: enrichment score (AUC of log2 frequency ratio across FACS sorting rounds) (log2 AUC); higher = stronger enrichment for Homer1 EVH1 binding

Binder | enrichment score
SRISDKFKYIIAQLMRDTESLAKRICKDLENLSQIH | 0.29
MAAAAPGNGRASAPRLLLLFLVPLLWAPAAVRAGPD | 1.61
MELVLVFLCSLLAPMVLASAAEKEKEMDPFHYDYQT | 1.3
EMDGNDLMQASKELSDLEIEMYALLGVFCLAILVFL | 2.97
PPEQWRATRVEILRRLLVTSQARAVAPGGATRLTDK | 5.66
SSSRWIPLQPMPVAWAFVQKTSALLWLLLLGTSLSP | -0.321
PLRIAALNALAACNYLPQSREKIIAALFKALNSTNI | -0.934
LTSFLCPGIVFADFFIMNLILWGEGSSAAIPFGTLV | -2.24
QGMAFALLANLPAVNGLYSSFFPLLTYFFLGGVHQM | 0.939
FLNDQTLEFLKIPSTLAPPMDPSVPIWIIIFGVIFC | 1.09
LNELASVKVNEVVRYEAGYVVCAVIAGLYLLLVPTA | 2.47
NTAENRELYIKTTLRELLVYIVFLVDICLLTYGMTS | 3.22
AGPNIAAIVGGTVAGIVLIGILLLVIWKALIHLSDL | 3.9
GVISTPVIRTFGRGGRYYGRGYKNQAAIQGRPPYAA | 1.64
GWDQLITQLNQNHTLLRPKDRVGLIHDVFQLVGAGR | 0.558
ITNDLAQIIIPKDNSSLLKRLACIAAFFCGLLILSS | 2.49
HSKELITAWYIGFLVLIFSSFLVYLVEKDANKEFST | 2.24
GPGVNNKSAQVLLLLVIPGHLIFLYTIHLMRSGHTS | 1.9
PTLRPPRKAALAARGGRGCRARAGGLLPATQSPAMS | 0.53
LLTSVSLTGVLVVMLIFTVLELLLAAYNSVFWWKQL | 2.9
FGGHRIQVYFAALSLILYIFTKLSVDLYSGALFIQK | -0.117
GLSFILAGLIVGGACIYKYFMPKSTIYRGEMCFFDS | 2.66

Binder | enrichment score
QKVKVWISEYWNLTETVAIGLFSAGFVLRWGDHPFH | 0.394
TTNVTAHAAYSYMYAGFSSFLILATVLCNVLVCGAL | 3.29
NTCLLRGFSGGILAFLVLEAVAGALVVALWGPLQDS | 1.91
MDPSADTWDLFSPLISLWINRFYIYLGFAVSISLWI | -3.53
MRVALGMLWLLALAWPPQARGFCPSQCSRSLHIMGD | 0.999
WGILAMKPHFLKINVSELSLWVILGCFWLFGTVILK | 2.76
DYFLKMFFGSAALGTLTGLISALVLKHIDLRKTPSL | 2.71
SFKWNFIKQYWQFATSAAAVCINFIIIMLLNLAYEK | -0.181
YLMMPIVNISEVLGPLCLMLLVGTVHCQIVSTQITR | 3.61
RHVVRLYDFFLACHPLIPIYFAAVIVLYREQEVLDC | 1.26
AMAYDRFAAICHPLNYQMIMNKGVFMKLIIFSWALG | -1.63
MMVVLLGATTLVLVAVAPWVLSAAAGGKNLKSPQKV | 2.9
EGAQEKTNLEIIILVGTAVIAMFFWLLLVIILRTVK | -0.242
HMEYTLRTRKCVSNVMIALTWALSAVISLAPLLFGW | 1.5
MNNAGHGPTRRLRDLGVLAGVALLAALWLLWLLGSA | -0.758
LPAFSGLTWAPFLFLFTYLPPFLNLLTVGFVSYFLV | 3.71
MASRLTLLTLLLLLLAGDRASSNPNATSSSSQDPES | 3.72
TEGFLLRLLYSGLIIAHCSLEILGRNDPPASASKVA | -0.999
NFTYSLSVVLISYTLIVVAVLRMRSADGRRKAFSTC | 1.04
PGLRVPKTLVLVVAAVLLLVSAESALITQQDLAPQQ | 2.4
MFANLKYVSLGILVFQTTSLVLTMRYSRTLKEEGPR | 1.83
HPASRNKKILNKKKLKRKQKSKSKVKTRSKSENLEN | -0.779
